According to US11439707B2, “Hypocrellin derivative substituted both in a peri-position and in 2-position by amino, preparation method, and application thereof” (priority 2017, dated 2022):
Some compounds share one wording; it may come from a single statement.

Test system: Hela cell
Assay: confocal fluorescence imaging
Format: cell-based
Conditions: FIG. 10

SMILES	cell entry and localisation
COCCOCCOCCOCCOCCOCCOCCC(=O)OCCOCCNc1c2c3c4c(c(OC)c(=O)c5c(O)cc(OC)c(c6c(OC)cc(NCCOCCOC(=O)CCOCCOCCOCCOCCOCCOCCOC)c(c1=O)c63)c54)C(C(C)=O)C(C)=C2 (stereo not drawn) [HB-1c-PEG6]	able to enter a lysosome of a Hela cell
COc1c2c3c4c(c(NCCOCCO)c(=O)c5c(NCCOCCO)cc(OC)c(c6c(OC)cc(O)c(c1=O)c63)c54)C=C(C)C2C(C)=O (stereo not drawn) [HB-1c]	able to enter a lysosome of a Hela cell
COc1c(O)c2c(=O)cc(OC)c3c4c(OC)cc(=O)c5c(NCCC(=O)O)c(NCCC(=O)O)c6c(c(c1C(C(C)=O)C(C)=C6)c23)c54 (stereo not drawn) [HB-10a]	able to enter a lysosome of a Hela cell
